Assay results reported in patent US12428651B2, “Transcription factors to improve resistance to environmental stress in plants” (Board of Trustees of Michigan State University, priority 2016, dated 2025).
No constants are given. Whether binding was seen depends on the method and setting. Some binding calls cover weakened binding; strength is not graded here.

Sequences of proteins named here, by UniProt entry; tags and fusion partners are left off. A change or cut given only in a name is not applied to a line headed by its entry.
UniProt Q9FIP9: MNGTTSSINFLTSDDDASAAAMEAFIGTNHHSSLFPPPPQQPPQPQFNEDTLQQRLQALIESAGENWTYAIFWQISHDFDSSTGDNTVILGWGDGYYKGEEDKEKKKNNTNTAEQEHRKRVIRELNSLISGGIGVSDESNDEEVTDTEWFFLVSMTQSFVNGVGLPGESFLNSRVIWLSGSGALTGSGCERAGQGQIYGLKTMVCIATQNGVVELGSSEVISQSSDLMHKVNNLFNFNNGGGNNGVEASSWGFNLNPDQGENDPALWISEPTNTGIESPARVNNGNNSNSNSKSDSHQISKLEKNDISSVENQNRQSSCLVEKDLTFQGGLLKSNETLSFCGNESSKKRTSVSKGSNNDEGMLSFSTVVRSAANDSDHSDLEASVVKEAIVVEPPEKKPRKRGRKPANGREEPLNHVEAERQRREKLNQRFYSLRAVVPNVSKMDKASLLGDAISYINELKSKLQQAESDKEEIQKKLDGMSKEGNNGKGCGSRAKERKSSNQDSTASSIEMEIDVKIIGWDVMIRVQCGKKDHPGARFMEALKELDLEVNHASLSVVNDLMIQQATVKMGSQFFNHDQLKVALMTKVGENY

Target: T1, MED25 subunit of the Mediator of RNA polymerase II transcription complex (UniProt Q7XYY2)
T1 sequence (looked up): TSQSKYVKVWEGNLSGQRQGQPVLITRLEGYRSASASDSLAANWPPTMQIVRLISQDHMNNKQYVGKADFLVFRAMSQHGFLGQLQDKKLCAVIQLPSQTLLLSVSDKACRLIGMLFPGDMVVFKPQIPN
Test: yeast two-hybrid, MED25 bait and MYC3 mutant prey

binding | Substance
binds | MYC3^L152A (from UniProt Q9FIP9 1-592)
binds | MYC3^E148A/M155A (from UniProt Q9FIP9 1-592)
